At least one structure is not confirmed: it was looked up by name or label, or the drawing left a doubt.
Target: T1, human GPR119 (Homo sapiens, UniProt Q8TDV5)
T1 construct: expressed in transfected cells; host or cells: Flp-in T-Rex-293 cells (Invitrogen #R78007), plasmid pcDNA5/FRT/TO, expression induced with tetracycline
T1 sequence (Q8TDV5 1-335): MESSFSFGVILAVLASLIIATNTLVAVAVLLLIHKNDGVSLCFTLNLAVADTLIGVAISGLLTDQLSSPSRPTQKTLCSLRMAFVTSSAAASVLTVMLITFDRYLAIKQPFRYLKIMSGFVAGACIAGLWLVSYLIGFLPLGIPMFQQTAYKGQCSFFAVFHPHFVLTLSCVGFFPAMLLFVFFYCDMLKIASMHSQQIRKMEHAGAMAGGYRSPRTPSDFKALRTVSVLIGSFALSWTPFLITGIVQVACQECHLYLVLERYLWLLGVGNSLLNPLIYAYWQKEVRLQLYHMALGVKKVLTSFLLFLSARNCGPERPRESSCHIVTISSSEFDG
Test: Measurement of intracellular cAMP in stable cell line expressing human GPR119 (GPR119 agonist effect)
Type: cell-based
Settings: statement in words on Tables 10 to 13
Excerpt: The GPR119 agonist effect is studied by measuring the effect of an analyte on increase of intracellular amount of cAMP in human GPR119 introduced cells. The testing method is described below.
Human GPR119 gene (NM 178471) is purchased from ATCC (ATCC No. 10807349), and is amplyfied according to PCR to form BamHI site at 5′ side and Apa I site at 3′ side. The primers are […] (sequence No. 1) and […] (sequence No. 2). The PCR conditions are described below.
The double-stranded DNA is thermally denatured using a DNA polymerase (KOD-Plus-Ver. 2; TOYOBO #KOD-211) at 98° C. for 10 seconds in one cycle. The denatured single-stranded DNA is annealed with the primers at 55° C. for 30 seconds. The DNA is subjected to an extension reaction at 68° C. for 1 minute and 15 seconds. The above-mentioned steps are repeated in 35 cycles. The PCR product is inserted into pcDNA5/FRT/TO (Invitrogen #V6520-20) plasmid. […]
The stable cell line expressing human GPR119 prepared in the above-mentioned method is plated on a 96-well plate at the concentration of 2,500 cells/well using Dulbecco's Modified Eagle Medium (DMEM) containing 10% fetal bovine serum (FBS). […] The amount of the intracellular cAMP is measured using a commercially available kit (HitHunter™ cAMP XS+Assay: GE Healthcare #90007503) and a reader (FLUOstar Optima: BMG LABTECH). […]

## CC(C)(C)OC(=O)N1CCC(c2cnc(Cn3ccc4cc(S(C)(=O)=O)ccc43)c(Cl)c2)CC1 [Example 14, tert-Butyl 4-[3-chloro-2-(5-methanesulfonylindol-1-ylmethyl)pyridin-5-yl]piperidine-1-carboxylate]
  GPR119 agonist effect (in words): excellent GPR119 agonist effect

Reference: patent US20120245344A1 (NIPPON CHEMIPHAR CO., LTD., priority 2009, published 2012)
